Article PMC4214753

Sequences of proteins named here, by UniProt entry; tags and fusion partners are left off. A change or cut given only in a name is not applied to a line headed by its entry.
UniProt P42768: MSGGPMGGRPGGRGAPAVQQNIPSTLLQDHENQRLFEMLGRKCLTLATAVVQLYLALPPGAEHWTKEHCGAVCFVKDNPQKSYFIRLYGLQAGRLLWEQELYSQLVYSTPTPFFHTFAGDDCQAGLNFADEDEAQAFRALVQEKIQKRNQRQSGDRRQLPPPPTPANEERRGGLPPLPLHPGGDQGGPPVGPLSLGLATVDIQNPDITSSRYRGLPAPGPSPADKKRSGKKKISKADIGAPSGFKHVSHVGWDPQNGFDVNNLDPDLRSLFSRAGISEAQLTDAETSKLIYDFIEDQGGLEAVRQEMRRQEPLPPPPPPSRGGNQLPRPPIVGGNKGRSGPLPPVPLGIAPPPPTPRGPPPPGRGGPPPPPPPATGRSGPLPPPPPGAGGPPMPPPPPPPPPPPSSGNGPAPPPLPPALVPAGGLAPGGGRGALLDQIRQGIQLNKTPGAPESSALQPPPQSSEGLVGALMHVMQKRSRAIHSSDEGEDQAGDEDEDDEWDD
UniProt P60766: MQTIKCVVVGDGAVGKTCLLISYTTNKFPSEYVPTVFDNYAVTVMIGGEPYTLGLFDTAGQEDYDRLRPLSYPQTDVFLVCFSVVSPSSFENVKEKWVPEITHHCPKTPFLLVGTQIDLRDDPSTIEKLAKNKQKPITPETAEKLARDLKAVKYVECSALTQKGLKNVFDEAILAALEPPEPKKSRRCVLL

Molecular target: His-WASP-CBD (Cdc42 binding domain) (UniProt P42768)
Assay: pull-down; CBD- or mCBD-beads with lysates of pseudopodia isolated from WT- or KO-MEF; IB for bound, active Cdc42; only the target purified

binding: binds
Substance: Cdc42 (from UniProt P60766 1-191)

These are yes or no findings as the source states them, for the method shown. In cells and extracts the contact can be indirect. A result given as binding can be weak or reduced; the word gives no strength.
